Assay results: the supplement of paper PMC12593923

What was measured:
Experiment in all cases: drug sensitivity score (DSS2, cytotoxicity, CellTox Green); higher = more cytotoxic / more sensitive; extreme values may be limits of the assay
Details in all cases: 72 h; doses 0.5, 1, 5 µM
OVCAR3 = test system: OVCAR3
Kuramochi = test system: Kuramochi
OVCAR4 = test system: OVCAR4

| Compound | drug sensitivity score (OVCAR3) [DSS] | drug sensitivity score (Kuramochi) [DSS] | drug sensitivity score (OVCAR4) [DSS] |
| --- | --- | --- | --- |
| COc1ccc(C(C)=O)c(O)c1 [Paeonol] | 0.3 | 0 | 0 |
| COc1c(C)c2c(c(O)c1C/C=C(\C)CCC(=O)OCCN1CCOCC1)C(=O)OC2 [Mycophenolate Mofetil] | 0 | 0 | 0 |
| COC(=O)C1=C(C)NC(C)=C(C(=O)OCCN(C)Cc2ccccc2)C1c1cccc([N+](=O)[O-])c1 (centres undefined) [Nicardipine (hydrochloride)] | 0 | 0 | 0 |
| COc1ccc2[nH]cc(CCNC(C)=O)c2c1 [Melatonin] | 0 | 0 | 0 |
| CNC(=O)c1ccc(-c2cnc3ncc(Cc4ccc5ncccc5c4)n3n2)cc1F [Capmatinib] | 0 | 0 | 0 |
| NCC(=O)CCC(=O)O [5-Aminolevulinic acid (hydrochloride)] | 2.5 | 0 | 0 |
| Nc1ccn([C@@H]2O[C@H](CO)[C@@H](O)C2(F)F)c(=O)n1 [Gemcitabine] | 0 | 0 | 0 |
| Cn1c(=O)cc(N2CCC[C@@H](N)C2)n(Cc2ccccc2C#N)c1=O [Alogliptin (Benzoate)] | 0 | 0 | 0 |
| COCCOC(=O)C1=C(C)NC(C)=C(C(=O)OC(C)C)C1c1cccc([N+](=O)[O-])c1 (centres undefined) [Nimodipine] | 0 | 0 | 0 |
| CCn1c2ccccc2c2cc(CNC)ccc21 [PhiKan 083] | 0 | 0.4 | 0 |
| CC[C@H]1[C@@H](O)[C@@H]2[C@H](CC[C@]3(C)[C@@H]([C@H](C)CCC(=O)O)CC[C@@H]23)[C@@]2(C)CC[C@@H](O)C[C@@H]12 [Obeticholic acid] | 0 | 0 | 0 |
| CC(=O)OCC(=O)[C@@]1(O)CC[C@H]2[C@@H]3CCC4=CC(=O)CC[C@]4(C)[C@@]3(F)[C@@H](O)C[C@@]21C [Fludrocortisone acetate] | 0 | 0 | 0 |
| O=C(O)[C@H]1O[C@@H](Oc2cc3oc(-c4ccccc4)cc(=O)c3c(O)c2O)[C@H](O)[C@@H](O)[C@@H]1O [Baicalin] | 0 | 0 | 0 |
| O=c1[nH]c(=O)n([C@H]2C[C@H](O)[C@@H](CO)O2)cc1C(F)(F)F [Trifluridine] | 0 | 0 | 0 |
| CC(=O)N(O)CCCCCNC(=O)CCC(=O)N(O)CCCCCNC(=O)CCC(=O)N(O)CCCCCN [Deferoxamine (mesylate)] | 0 | 0 | 0 |
| O=C(O)c1cc(=O)c2c(OCC(O)COc3cccc4oc(C(=O)O)cc(=O)c34)cccc2o1 [Cromolyn (sodium)] | 0 | 0 | 0 |
| N#CCCCSC(=N)N [Kevetrin (hydrochloride)] | 0 | 0 | 0 |
| O=C(O)Cc1ccccc1Nc1c(Cl)cccc1Cl [Diclofenac (potassium)] | 0 | 0 | 0 |
| CC(=O)S[C@@H]1CC2=CC(=O)CC[C@]2(C)[C@H]2CC[C@@]3(C)[C@@H](CC[C@@]34CCC(=O)O4)[C@H]12 [Spironolactone] | 0 | 0 | 0 |
| COc1c(C)c2c(c(O)c1C/C=C(\C)CCC(=O)O)C(=O)OC2 [Mycophenolic acid] | 0 | 0 | 0 |
| Cn1nnc2c(C(N)=O)ncn2c1=O [Temozolomide] | 0 | 0 | 0 |
| COc1cc(Nc2c(C#N)cnc3cc(OCCCN4CCN(C)CC4)c(OC)cc23)c(Cl)cc1Cl [Bosutinib] | 0 | 0 | 0 |
| Cc1nc(C)c(C)nc1C [Ligustrazine] | 0 | 0 | 0 |
| Cc1nc(Nc2ncc(C(=O)Nc3c(C)cccc3Cl)s2)cc(N2CCN(CCO)CC2)n1 [Dasatinib] | 0 | 0 | 0 |

Molecules above that have four or more nitrogen atoms (6):

| Compound | drug sensitivity score (OVCAR3) [DSS] | drug sensitivity score (Kuramochi) [DSS] | drug sensitivity score (OVCAR4) [DSS] |
| --- | --- | --- | --- |
| CNC(=O)c1ccc(-c2cnc3ncc(Cc4ccc5ncccc5c4)n3n2)cc1F [Capmatinib] | 0 | 0 | 0 |
| Cn1c(=O)cc(N2CCC[C@@H](N)C2)n(Cc2ccccc2C#N)c1=O [Alogliptin (Benzoate)] | 0 | 0 | 0 |
| CC(=O)N(O)CCCCCNC(=O)CCC(=O)N(O)CCCCCNC(=O)CCC(=O)N(O)CCCCCN [Deferoxamine (mesylate)] | 0 | 0 | 0 |
| Cn1nnc2c(C(N)=O)ncn2c1=O [Temozolomide] | 0 | 0 | 0 |
| COc1cc(Nc2c(C#N)cnc3cc(OCCCN4CCN(C)CC4)c(OC)cc23)c(Cl)cc1Cl [Bosutinib] | 0 | 0 | 0 |
| Cc1nc(Nc2ncc(C(=O)Nc3c(C)cccc3Cl)s2)cc(N2CCN(CCO)CC2)n1 [Dasatinib] | 0 | 0 | 0 |

(cont.)

| Compound | drug sensitivity score (OVCAR3) [DSS] | drug sensitivity score (Kuramochi) [DSS] | drug sensitivity score (OVCAR4) [DSS] |
| --- | --- | --- | --- |
| CC(C)C[C@H]1C(=O)N2CCC[C@H]2[C@]2(O)O[C@](NC(=O)[C@@H]3C=C4c5cccc6[nH]c(Br)c(c56)C[C@H]4N(C)C3)(C(C)C)C(=O)N12 [Bromocriptine (mesylate)] | 0 | 0 | 0 |
| CCC(C)(Oc1ccc(C2(c3ccc(OC(C)(CC)C(=O)O)cc3)CCCCC2)cc1)C(=O)O (centres undefined) [Clinofibrate] | 0 | 0 | 0 |
| Nc1nc(Cl)nc2c1ncn2[C@@H]1O[C@H](CO)[C@@H](O)[C@@H]1F [Clofarabine] | 0 | 0 | 0 |
| COc1ccc2cc3[n+](cc2c1OC)CCc1cc2c(cc1-3)OCO2 [Berberine (chloride)] | 0 | 0 | 0 |
| CNC(=O)c1cc(Oc2ccc(NC(=O)Nc3ccc(Cl)c(C(F)(F)F)c3)cc2)ccn1 [Sorafenib (Tosylate)] | 0 | 0 | 0 |
| CNCc1ccc(-c2[nH]c3cc(F)cc4c3c2CCNC4=O)cc1 [Rucaparib] | 0 | 0 | 0 |
| CC[C@H](C)[C@H](NC(=O)[C@H](Cc1ccc(O)cc1)NC(=O)[C@@H](NC(=O)[C@H](CCCNC(=N)N)NC(=O)[C@@H](N)CC(=O)O)C(C)C)C(=O)N[C@@H](Cc1cnc[nH]1)C(=O)N1CCC[C@H]1C(=O)N[C@@H](Cc1ccccc1)C(=O)O [Angiotensin II human (acetate)] | 0 | 0 | 0 |
| O=C(O)CCCCC1CCSS1 (stereo not drawn) [α-Lipoic Acid] | 0 | 0 | 0 |
| CN1CC(=O)N2[C@H](c3ccc4c(c3)OCO4)c3[nH]c4ccccc4c3C[C@@H]2C1=O [Tadalafil] | 0 | 0 | 0 |
| O=P(O)(O)C(O)(Cn1ccnc1)P(=O)(O)O [Zoledronic acid (monohydrate)] | 0 | 0 | 0 |
| CCOC(=O)C1=C(C)NC(C)=C(C(=O)OC)C1c1cccc([N+](=O)[O-])c1 (centres undefined) [Nitrendipine] | 0 | 0 | 0 |
| O=c1n(CC2CO2)c(=O)n(CC2CO2)c(=O)n1CC1CO1 (centres undefined) [Triglycidyl isocyanurate] | 0 | 0 | 0 |
| COc1ccc(C2=N[C@@H](c3ccc(Cl)cc3)[C@@H](c3ccc(Cl)cc3)N2C(=O)N2CCNC(=O)C2)c(OC(C)C)c1 [Nutlin-3] | 0 | 0 | 0 |
| O=C(O)C(=O)O.[NH-][C@@H]1CCCC[C@H]1[NH-].[Pt+2] [Oxaliplatin] | 0 | 0 | 0 |
| CC(C)(C)C[C@@H]1N[C@@H](C(=O)N[C@H]2CC[C@H](O)CC2)[C@H](c2cccc(Cl)c2F)[C@]12C(=O)Nc1cc(Cl)ccc12 | 0 | 0 | 0 |
| O=[N+]([O-])O[C@@H]1CO[C@H]2[C@@H]1OC[C@@H]2O [Isosorbide mononitrate] | 0 | 0 | 0 |
| CC(=O)n1c2c(c3ccccc31)CCCC2=O [MS7972] | 0 | 0 | 0 |
| COC1=C[C@@H]2[C@@H]3Cc4ccc(OC)c(O)c4[C@]2(CCN3C)CC1=O [Sinomenine] | 0 | 0 | 0 |
| CCCc1nn(C)c2c(=O)[nH]c(-c3cc(S(=O)(=O)N4CCN(C)CC4)ccc3OCC)nc12 [Sildenafil] | 2.3 | 3.3 | 0 |
| C[C@H]1Oc2cc(cnc2N)-c2c(nn(C)c2C#N)CN(C)C(=O)c2ccc(F)cc21 [Lorlatinib] | 0 | 0 | 0 |
| CC(O)(P(=O)(O)O)P(=O)(O)O [Etidronic acid] | 0 | 0 | 0 |
| Cc1ccc(NC(=O)C2(c3ccc4c(c3)OC(F)(F)O4)CC2)nc1-c1cccc(C(=O)O)c1 [Lumacaftor] | 0 | 0 | 0 |
| CCC1=C[C@@H]2CN(C1)Cc1c([nH]c3ccccc13)[C@@](C(=O)OC)(c1cc3c(cc1OC)N(C)[C@H]1[C@@](O)(C(=O)OC)[C@H](OC(C)=O)[C@]4(CC)C=CCN5CC[C@]31[C@@H]54)C2 [Vinorelbine (ditartrate)] | 8.7 | 2.7 | 0.8 |
| COc1ccc(CN2CCNCC2)c(OC)c1OC [Trimetazidine (dihydrochloride)] | 0 | 0 | 0 |

Limited to drug sensitivity score (Kuramochi) [DSS] and drug sensitivity score (OVCAR4) [DSS], for two of the compounds above:
Compound | drug sensitivity score (Kuramochi) [DSS] | drug sensitivity score (OVCAR4) [DSS]
COc1c(C)c2c(c(O)c1C/C=C(\C)CCC(=O)O)C(=O)OC2 [Mycophenolic acid] | 0 | 0
CCCc1nn(C)c2c(=O)[nH]c(-c3cc(S(=O)(=O)N4CCN(C)CC4)ccc3OCC)nc12 [Sildenafil] | 3.3 | 0

Structures can show the parent of a compound that is named as a salt. Some well-known active drugs show little effect in this data set, so a weak value is uncertain.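 OVCAR3, described as chemosensitive, is one of three high-grade serous ovarian cancer lines that differ in chemosensitivity. Toxicity was scaled from DMSO vehicle wells to fully lysed wells; scores came from fitted multi-dose response curves, and the authors treated scores above 5 as indicating drug sensitivity.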
